Here are results for one compound from paper PMC3257419 (Journal of Medicinal Chemistry, 2011).

The subject of the experiment is GABAA receptors. The note with it: 1 μM cold GABA.

As for `NCCCC(=O)O` [GABA, γ-aminobutyric acid, reference compound], the “inhibition of radioligand binding to GABAA receptors” value was “inhibited radioligand binding as expected”.
